Measurements taken from patent publication US20250179200A1 (UNIVERSITY OF CHICAGO, published 2025).
Changes are numbered by the printed parent chain. Results are given in words; binding and its absence hold for the method and conditions named. Some binding calls cover weakened binding; strength is not graded here. For some assays here: Sequences can lack the tags named with a protein.

Sequences of proteins named here, by UniProt entry; tags and fusion partners are left off. A change or cut given only in a name is not applied to a line headed by its entry. A line that says so, or that is headed by a name, gives the form on record, which may keep a tag or linker. Residues count along the entry.
Growth Hormone Receptor (GHR) immobilized on a high binding plate (P10912, residues 19-264): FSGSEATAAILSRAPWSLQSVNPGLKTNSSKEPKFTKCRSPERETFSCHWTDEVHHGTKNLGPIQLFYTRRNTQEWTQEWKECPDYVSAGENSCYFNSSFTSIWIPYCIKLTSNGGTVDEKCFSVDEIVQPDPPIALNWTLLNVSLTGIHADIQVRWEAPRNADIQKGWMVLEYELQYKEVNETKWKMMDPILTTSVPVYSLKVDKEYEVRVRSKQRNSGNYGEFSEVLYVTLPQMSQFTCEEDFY
GHR-Fc-10× His (human) (P10912, form named): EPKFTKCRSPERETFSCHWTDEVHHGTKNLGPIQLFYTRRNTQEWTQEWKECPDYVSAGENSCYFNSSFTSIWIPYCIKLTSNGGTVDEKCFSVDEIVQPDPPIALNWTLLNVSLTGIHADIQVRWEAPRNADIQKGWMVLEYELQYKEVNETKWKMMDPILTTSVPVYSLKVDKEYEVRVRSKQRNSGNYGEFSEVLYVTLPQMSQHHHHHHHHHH

Key:
[1] = molecular target: GHR-Fc-10× His (human) (human) (UniProt P10912); experiment: SPR
[2] = molecular target: GHR-Fc-10× His (human) (human) (UniProt P10912); experiment: SPR (FIG. 12A)
[3] = molecular target: GHR-Fc-10× His (human) (human) (UniProt P10912); experiment: SPR single injection over human GHR
[4] = molecular target: GHR-Fc-10× His (human) (human) (UniProt P10912); experiment: SPR, Fab dilution series over human GHR_Fc with 10x His-tag on Ni-NTA chip
[5] = molecular target: Cyno GHR_Fc with 10× His-tag (cyno); experiment: SPR, Fab in two-fold dilutions from 50 nM
[6] = molecular target: GHR-Fc-10× His (human) (human) (UniProt P10912); experiment: SPR, Fab in two-fold dilutions from 50 nM
[7] = molecular target: T1, Murine GHR_Fc with 10× His-tag (murine) (UniProt P16882); experiment: SPR, Fab in two-fold dilutions from 50 nM
T1 sequence (chain (part 1 of 2)): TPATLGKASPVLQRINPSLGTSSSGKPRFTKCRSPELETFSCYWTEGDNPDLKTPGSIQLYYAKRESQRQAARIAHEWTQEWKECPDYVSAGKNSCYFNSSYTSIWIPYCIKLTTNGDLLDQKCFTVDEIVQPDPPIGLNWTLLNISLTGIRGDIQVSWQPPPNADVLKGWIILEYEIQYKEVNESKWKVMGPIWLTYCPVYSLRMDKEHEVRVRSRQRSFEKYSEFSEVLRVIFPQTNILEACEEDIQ
T1 sequence (chain (part 2 of 2)): HHHHHHHHHH

[8] = molecular target: T2, Pig GHR_Fc with 10× His-tag (pig) (UniProt P19756); experiment: SPR, Fab in two-fold dilutions from 50 nM
T2 sequence (chain (part 1 of 2)): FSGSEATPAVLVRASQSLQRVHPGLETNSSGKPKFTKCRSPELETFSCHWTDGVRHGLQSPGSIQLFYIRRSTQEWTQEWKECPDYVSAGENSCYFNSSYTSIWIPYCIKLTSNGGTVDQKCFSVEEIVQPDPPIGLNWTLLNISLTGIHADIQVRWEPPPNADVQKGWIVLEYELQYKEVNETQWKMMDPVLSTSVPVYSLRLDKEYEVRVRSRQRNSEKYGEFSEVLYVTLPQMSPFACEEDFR
T2 sequence (chain (part 2 of 2)): HHHHHHHHHH

[9] = molecular target: T3, Rabbit GHR_Fc with 10× His-tag (rabbit) (UniProt P19941); experiment: SPR, Fab in two-fold dilutions from 50 nM
T3 sequence (chain (part 1 of 2)): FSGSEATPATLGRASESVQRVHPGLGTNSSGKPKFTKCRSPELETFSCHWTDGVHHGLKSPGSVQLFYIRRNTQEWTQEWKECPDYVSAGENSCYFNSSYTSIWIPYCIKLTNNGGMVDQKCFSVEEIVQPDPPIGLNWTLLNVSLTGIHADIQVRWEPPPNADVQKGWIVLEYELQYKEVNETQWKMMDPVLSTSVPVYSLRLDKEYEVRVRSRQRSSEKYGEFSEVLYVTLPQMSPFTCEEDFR
T3 sequence (chain (part 2 of 2)): HHHHHHHHHH

[10] = molecular target: T4, Rat GHR_Fc with 10× His-tag (rat) (UniProt P16310); experiment: SPR, Fab in two-fold dilutions from 50 nM
T4 sequence (chain (part 1 of 2)): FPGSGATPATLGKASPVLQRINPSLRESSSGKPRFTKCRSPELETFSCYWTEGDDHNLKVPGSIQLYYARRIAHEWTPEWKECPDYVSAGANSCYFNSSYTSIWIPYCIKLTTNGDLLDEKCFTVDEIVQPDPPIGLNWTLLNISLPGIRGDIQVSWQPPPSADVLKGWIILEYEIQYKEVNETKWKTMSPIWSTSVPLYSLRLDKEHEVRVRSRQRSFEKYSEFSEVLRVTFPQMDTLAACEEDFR
T4 sequence (chain (part 2 of 2)): HHHHHHHHHH

[11] = molecular target: Cyno GHR_Fc with 10× His-tag (cyno); experiment: SPR, GHR_Fc with 10× His-tag on Ni-NTA chip, Fab as analyte
[12] = molecular target: T1, Murine GHR_Fc with 10× His-tag (murine); experiment: as above
[13] = molecular target: T2, Pig GHR_Fc with 10× His-tag (pig); experiment: as above
[14] = molecular target: T3, Rabbit GHR_Fc with 10× His-tag (rabbit); experiment: as above
[15] = molecular target: T4, Rat GHR_Fc with 10× His-tag (rat); experiment: as above
[16] = molecular target: Growth Hormone Receptor (GHR) immobilized on a high binding plate (UniProt P10912); experiment: competition ELISA, GHR on the plate preincubated with 200 nM human GH, bound Fab detected
[17] = molecular target: Growth Hormone Receptor (GHR) immobilized on a high binding plate (UniProt P10912); experiment: competition ELISA: Fab titrated on plate-bound GHR preincubated with 200 nM GH, anti-human Fab-HRP
[18] = molecular target: Growth Hormone Receptor (GHR) immobilized on a high binding plate (UniProt P10912); experiment: competition ELISA: 200 nM Fab prebound to plate-bound GHR, challenged with GH 1 to 2000 nM, anti-human Fab-HRP
[19] = molecular target: Growth Hormone Receptor (GHR) immobilized on a high binding plate (UniProt P10912); experiment: competition ELISA: 200 nM Fab prebound to plate-bound GHR, challenged with B2036 up to 1000 nM, anti-human Fab-HRP

Measured: binding

B1: GHR_TS23.1 Fab (Fab, V domains shown)
VH: EVQLVESGGGLVQPGGSLRLSCAASGFNFYYSSIHWVRQAPGKGLEWVASIYSYSGSTSYADSVKGRFTISADTSKNTAYLQMNSLRAEDTAVYYCARQDWYYGGYFYYGIDYWGQGTLVTVSS
VL: DIQMTQSPSSLSASVGDRVTITCRASQSVSSAVAWYQQKPGKAPKLLIYSASSLYSGVPSRFSGSRSGTDFTLTISSLQPEDFATYYCQQYWSTLITFGQGTKVEIKR
binds: [1] | [2] | [3] | [4]

B2: GHR_TS23 Fab (Fab, V domains shown)
VH: B1 VH with D100Y
VL: B1 VL
not listed: [1] | [2] | [4]
binds: all other assays above
